At least one structure is not confirmed: it was looked up by name or label, or the drawing left a doubt.
System: patients known to give positive skin test to penicillin derivatives
Assay: Intradermal skin test with BPO-amines and other penicillin allergy skin test materials (Table II)
Format: in vivo, human
Details: intradermal 0.01 ml, read in 15 minutes, BPL 1 × 10^-6 M, other materials 1 × 10^-2 M
From the text: Benzylpenicillin (PG) was 1.0×10^-2 M in 0.11M saline.
Sodium benzylpenicilloate plus sodium benzylpenilloate (P/P) was 1.0×10^-2 M of each dissolved in phosphate buffered saline at pH 7.5.
Benzylpenicilloyl-amine (BPO-amine) was 1.0×10^-2 M concentration phosphate buffered saline at pH 7.5.
Benzylpenicilloyl-n-propyl amine and benzylpenicilloyl-n-ethyl amine (as α-diastereoisomers) were each dissolved to 1.0×10^-2 M concentration in phosphate buffered saline at pH 7.5.
They were healthy men and women ranging in age from 23 to 56 years. Ten people negative to the skin test materials served as controls.
Using 1.0 ml tuberculin syringes with #26 needles and intradermal bevels, 0.01 ml volumes of the test materials were injected intradermally into the anterior-lateral aspects of the arms. Skin tests were read in 15 minutes. A negative reaction is the poorly outlined bleb of fluid --1-3 mm in diameter without surrounding erythema. Positive tests were sharply outlined wheals of 4-20 mm diameter with surrounding erythema. The positive tests were graded as 1+,2+,3+ and 4+ on the basis of wheal diameter. 1+=4-6 mm; 2+=7-9 mm; 3+=10-12 mm; and 4+=more than 13 mm with pseudopods. […] Skin tests were done in duplicate.

CCNC(=O)C(NC(=O)Cc1ccccc1)C1NC(C(=O)O)C(C)(C)S1 (stereo not shown) [BPO-ethyl amine, benzylpenicilloyl-n-ethyl amine]
Intensity of reactions in patients: patient gamma (patient eight): 1 - 2+
Intensity of reactions in patients: patient eta (patient five): 2 - 3+
Intensity of reactions in patients: patient zeta (patient one): 1 - 2+
Intensity of reactions in patients: beta (patient three): 1 - 2+

Reference: US4183910A, “Method for testing to predict and/or diagnose allergy to penicillins, and compounds and compositions for use in such tests” (priority 1978, dated 1980)
